Measured values: publication PMC7868085, “A potent and selective small molecule inhibitor of myoferlin attenuates colorectal cancer progression” (Clinical and Translational Medicine, 2021)
Results are given in words; binding and its absence hold for the method and conditions named. In cells and extracts the contact can be indirect. Some binding calls cover weakened binding; strength is not graded here. For some assays here: Sequences can lack the tags named with a protein.

Chains of the proteins cited; added tags and fusions are not shown.
UniProt Q9NZM1: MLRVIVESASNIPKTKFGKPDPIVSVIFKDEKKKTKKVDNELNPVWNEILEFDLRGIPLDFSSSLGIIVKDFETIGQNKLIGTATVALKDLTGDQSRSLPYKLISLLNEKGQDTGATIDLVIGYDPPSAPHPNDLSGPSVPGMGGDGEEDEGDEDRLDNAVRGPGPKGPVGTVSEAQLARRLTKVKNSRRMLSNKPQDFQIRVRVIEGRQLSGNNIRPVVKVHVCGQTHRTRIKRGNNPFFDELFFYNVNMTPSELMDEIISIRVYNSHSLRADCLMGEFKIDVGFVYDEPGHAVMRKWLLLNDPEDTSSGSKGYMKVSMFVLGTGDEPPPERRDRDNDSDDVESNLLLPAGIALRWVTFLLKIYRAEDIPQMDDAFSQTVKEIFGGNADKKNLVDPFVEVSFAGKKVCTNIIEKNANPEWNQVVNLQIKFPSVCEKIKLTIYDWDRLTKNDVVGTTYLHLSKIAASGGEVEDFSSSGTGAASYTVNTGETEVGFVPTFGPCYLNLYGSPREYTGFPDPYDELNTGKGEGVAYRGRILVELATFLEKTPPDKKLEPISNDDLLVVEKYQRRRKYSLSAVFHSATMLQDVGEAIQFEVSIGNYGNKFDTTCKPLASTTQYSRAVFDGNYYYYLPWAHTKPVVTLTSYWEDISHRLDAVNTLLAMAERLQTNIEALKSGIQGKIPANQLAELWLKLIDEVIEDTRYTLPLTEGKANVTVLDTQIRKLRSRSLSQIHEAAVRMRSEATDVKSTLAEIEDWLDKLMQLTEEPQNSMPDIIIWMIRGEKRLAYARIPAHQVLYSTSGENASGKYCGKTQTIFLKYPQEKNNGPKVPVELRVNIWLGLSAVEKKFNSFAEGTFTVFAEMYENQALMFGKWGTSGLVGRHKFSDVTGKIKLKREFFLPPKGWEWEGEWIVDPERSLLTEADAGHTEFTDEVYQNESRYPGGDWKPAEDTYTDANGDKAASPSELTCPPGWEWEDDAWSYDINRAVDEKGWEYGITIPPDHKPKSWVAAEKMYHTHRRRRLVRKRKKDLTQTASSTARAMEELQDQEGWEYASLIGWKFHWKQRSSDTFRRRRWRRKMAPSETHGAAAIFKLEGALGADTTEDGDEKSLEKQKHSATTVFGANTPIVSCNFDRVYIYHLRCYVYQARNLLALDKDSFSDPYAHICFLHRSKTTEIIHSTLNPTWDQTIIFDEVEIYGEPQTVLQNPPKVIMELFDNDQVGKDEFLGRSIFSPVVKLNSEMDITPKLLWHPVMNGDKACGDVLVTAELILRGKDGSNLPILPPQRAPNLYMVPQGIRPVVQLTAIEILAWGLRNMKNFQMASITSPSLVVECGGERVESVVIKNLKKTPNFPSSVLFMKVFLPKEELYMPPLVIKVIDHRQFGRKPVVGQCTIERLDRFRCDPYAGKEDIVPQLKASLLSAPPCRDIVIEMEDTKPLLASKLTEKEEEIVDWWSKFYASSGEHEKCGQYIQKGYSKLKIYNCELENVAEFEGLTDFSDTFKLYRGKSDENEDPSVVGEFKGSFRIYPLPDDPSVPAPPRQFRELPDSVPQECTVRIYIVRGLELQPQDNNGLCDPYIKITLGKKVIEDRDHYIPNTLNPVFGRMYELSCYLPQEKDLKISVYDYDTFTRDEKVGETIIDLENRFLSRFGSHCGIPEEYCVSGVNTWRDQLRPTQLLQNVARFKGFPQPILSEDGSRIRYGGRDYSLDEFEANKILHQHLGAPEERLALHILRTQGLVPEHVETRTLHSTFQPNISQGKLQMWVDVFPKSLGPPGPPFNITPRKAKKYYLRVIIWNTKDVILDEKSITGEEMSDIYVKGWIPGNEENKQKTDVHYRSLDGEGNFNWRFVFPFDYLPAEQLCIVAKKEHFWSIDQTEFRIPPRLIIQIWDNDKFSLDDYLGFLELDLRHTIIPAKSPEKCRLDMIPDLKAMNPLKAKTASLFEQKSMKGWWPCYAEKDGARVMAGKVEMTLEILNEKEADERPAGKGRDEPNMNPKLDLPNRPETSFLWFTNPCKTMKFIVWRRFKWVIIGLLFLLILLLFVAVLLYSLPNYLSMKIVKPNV
UniProt P51149: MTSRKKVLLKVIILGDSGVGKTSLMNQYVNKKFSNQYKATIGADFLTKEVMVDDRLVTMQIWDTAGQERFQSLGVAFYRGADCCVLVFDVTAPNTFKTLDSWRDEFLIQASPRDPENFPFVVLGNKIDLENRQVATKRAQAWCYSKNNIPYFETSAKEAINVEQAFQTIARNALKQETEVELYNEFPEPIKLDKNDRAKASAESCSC
UniProt Q03135: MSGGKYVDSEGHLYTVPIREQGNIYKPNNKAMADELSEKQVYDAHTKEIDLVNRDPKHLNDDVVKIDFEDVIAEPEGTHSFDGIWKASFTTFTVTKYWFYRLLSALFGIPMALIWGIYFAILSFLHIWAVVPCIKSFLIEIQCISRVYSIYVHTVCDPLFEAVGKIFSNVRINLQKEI

Legend:
HA-MYOF (myoferlin) = HA-MYOF (myoferlin) (UniProt Q9NZM1); experiment: co-IP; HEK293T cells co-transfected with tagged plasmids, treated with YQ456 for 24 h (doses); lysate in IP buffer (150 mM NaCl, 0.1% Triton X-100, 50 mM Tris-HCl, 1 mM EDTA, pH 7.4); precipitation by tag antibody beads (Flag M2 affinity gel or anti-HA agarose), western blot; 4°C
[1] = molecular target: Rab7, endogenous in HCT116 cells (human (endogenous in HCT116)) (UniProt P51149); experiment: co-IP; HCT116 cells without transfection, treated with YQ456 for 24 h; lysate in IP buffer (150 mM NaCl, 0.1% Triton X-100, 50 mM Tris-HCl, 1 mM EDTA, pH 7.4); antibodies overnight, protein A/G, western blot; 4°C
Flag-Rab32 = molecular target: T1, Flag-Rab32 (UniProt Q13637); experiment: co-IP; HEK293T cells co-transfected with tagged plasmids, treated with YQ456 for 24 h (doses); lysate in IP buffer (150 mM NaCl, 0.1% Triton X-100, 50 mM Tris-HCl, 1 mM EDTA, pH 7.4); precipitation by tag antibody beads (Flag M2 affinity gel or anti-HA agarose), western blot; 4°C
T1 sequence: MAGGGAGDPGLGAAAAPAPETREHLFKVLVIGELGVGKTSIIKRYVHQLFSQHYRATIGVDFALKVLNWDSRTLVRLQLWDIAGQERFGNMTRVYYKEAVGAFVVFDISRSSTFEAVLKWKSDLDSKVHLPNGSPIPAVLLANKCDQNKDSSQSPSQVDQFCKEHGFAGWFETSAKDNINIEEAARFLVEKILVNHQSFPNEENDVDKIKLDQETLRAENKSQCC

Flag-Rab7 = Flag-Rab7 (UniProt P51149); experiment: as above

Flag-CAV1 (caveolin 1) (from UniProt Q03135 1-178)
binding (HA-MYOF (myoferlin)): binds

Flag-Rab7 (from UniProt P51149 1-207)
binding (HA-MYOF (myoferlin)): binds

Myoferlin (MYOF), endogenous in HCT116 cells (from UniProt Q9NZM1 1-2061)
binding [1]: binds

HA-MYOF (myoferlin) (from UniProt Q9NZM1 1-2061)
binding (Flag-Rab32): binds | binding (Flag-Rab7): binds
